Among the data in article PMC8213820 are binding values, retold here.

Chains of the proteins cited; added tags and fusions are not shown. Residues count along the entry.
UniProt B6KAM0, residues 67-569: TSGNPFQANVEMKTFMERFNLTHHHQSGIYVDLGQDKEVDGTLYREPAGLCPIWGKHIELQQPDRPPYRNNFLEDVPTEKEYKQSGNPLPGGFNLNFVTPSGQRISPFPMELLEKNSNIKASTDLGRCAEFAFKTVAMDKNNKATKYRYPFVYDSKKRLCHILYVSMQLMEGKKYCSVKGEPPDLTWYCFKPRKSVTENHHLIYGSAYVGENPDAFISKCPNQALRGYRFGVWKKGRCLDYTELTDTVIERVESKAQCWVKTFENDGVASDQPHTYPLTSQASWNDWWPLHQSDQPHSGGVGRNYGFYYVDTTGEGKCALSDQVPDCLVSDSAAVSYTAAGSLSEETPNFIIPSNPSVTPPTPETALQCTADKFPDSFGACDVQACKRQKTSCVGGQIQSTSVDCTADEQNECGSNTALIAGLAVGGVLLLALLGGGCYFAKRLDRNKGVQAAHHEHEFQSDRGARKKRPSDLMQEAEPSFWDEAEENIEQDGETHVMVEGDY

Results are given in words; binding and its absence hold for the method and conditions named. Binding seen in cells or lysates may run through a third protein. A yes stands for co-enrichment or nearness to the bait. Other partners may have been found.

Assay [1] deals with T1, RON4, endogenous in T. gondii tachyzoites (Toxoplasma gondii (endogenous in RH tachyzoites)) (UniProt B6KJ32).
T1 sequence: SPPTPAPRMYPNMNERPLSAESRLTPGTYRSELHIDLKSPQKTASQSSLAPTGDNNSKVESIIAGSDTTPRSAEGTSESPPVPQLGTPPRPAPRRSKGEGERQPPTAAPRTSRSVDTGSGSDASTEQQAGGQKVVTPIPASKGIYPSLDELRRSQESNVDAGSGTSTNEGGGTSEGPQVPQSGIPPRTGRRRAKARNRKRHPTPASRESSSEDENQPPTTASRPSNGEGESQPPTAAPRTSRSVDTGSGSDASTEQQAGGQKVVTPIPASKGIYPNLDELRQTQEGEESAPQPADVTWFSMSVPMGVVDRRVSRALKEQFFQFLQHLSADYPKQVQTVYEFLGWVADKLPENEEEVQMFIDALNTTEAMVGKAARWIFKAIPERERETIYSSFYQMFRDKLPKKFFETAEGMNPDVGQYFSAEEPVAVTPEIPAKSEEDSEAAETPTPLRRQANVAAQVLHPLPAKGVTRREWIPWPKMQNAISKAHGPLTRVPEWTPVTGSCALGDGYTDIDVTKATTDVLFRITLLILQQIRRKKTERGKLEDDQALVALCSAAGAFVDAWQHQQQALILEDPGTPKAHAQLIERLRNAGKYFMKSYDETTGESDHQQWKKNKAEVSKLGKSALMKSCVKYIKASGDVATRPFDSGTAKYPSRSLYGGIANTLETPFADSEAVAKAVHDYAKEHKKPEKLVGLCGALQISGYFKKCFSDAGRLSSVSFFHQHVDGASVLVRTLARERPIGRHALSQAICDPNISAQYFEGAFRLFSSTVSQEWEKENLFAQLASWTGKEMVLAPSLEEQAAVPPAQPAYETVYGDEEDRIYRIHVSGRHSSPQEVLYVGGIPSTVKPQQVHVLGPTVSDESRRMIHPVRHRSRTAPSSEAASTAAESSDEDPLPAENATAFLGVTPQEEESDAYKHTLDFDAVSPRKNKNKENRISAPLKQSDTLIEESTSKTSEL
As to the kind of experiment: affinity purification with mass spectrometry.

Assay [2] concerns the target T2, RON4-3Ty (Toxoplasma gondii) (UniProt B6KJ32).
T2 sequence: T1 sequence
As to the kind of experiment: affinity purification with mass spectrometry.

Take “microneme protein AMA1 (from UniProt B6KAM0)”: in assay [1], the binding result was “binds”. For AMA1 (from UniProt B6KAM0), the binding result in assay [2] is “binds”.
